No constants are given. Whether binding was seen depends on the method and setting. Binding seen in cells or lysates may run through a third protein. Some results given as binding are weak or reduced against the parent protein; the word gives no strength.
Assays:
[1] = molecular target: T1, gasdermin E (GSDME), exogenous, in 293T cells (UniProt O60443); experiment: proximity ligation; in situ PLA in 293T cells, Duolink In Situ Detection Reagents Red kit; Flag and HA primary antibodies overnight at 4 °C
T1 sequence: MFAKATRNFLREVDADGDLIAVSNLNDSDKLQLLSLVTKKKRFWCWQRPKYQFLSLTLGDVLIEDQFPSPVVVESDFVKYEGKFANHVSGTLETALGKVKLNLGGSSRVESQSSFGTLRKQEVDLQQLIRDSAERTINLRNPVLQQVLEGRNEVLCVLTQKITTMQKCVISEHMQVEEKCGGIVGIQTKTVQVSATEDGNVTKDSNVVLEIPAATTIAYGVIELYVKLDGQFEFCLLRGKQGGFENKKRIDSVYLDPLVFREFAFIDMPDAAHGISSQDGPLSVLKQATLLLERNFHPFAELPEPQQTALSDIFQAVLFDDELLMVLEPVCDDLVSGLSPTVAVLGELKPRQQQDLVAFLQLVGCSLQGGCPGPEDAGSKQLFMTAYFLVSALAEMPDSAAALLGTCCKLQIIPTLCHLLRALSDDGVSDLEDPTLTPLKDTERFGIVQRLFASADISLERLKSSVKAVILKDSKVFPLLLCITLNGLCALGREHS

[2] = molecular target: T1, gasdermin E (GSDME), exogenous, in 293T cells; experiment: co-IP; 293T cells 48 h after transfection; lysis in 50 mM Tris-HCl pH 7.4, 150 mM sodium chloride, 5% glycerol, 1% IGEPAL CA-630; anti-Flag or anti-HA antibody with protein G, anti-IgG as control; 6 washes

- binding [1]: binds
- binding [2]: binds
B1: Tumor necrosis factor superfamily member 15 (TNFSF15), exogenous, in 293T cells (protein, UniProt O95150 1-251)
chain: MAEDLGLSFGETASVEMLPEHGSCRPKARSSSARWALTCCLVLLPFLAGLTTYLLVSQLRAQGEACVQFQALKGQEFAPSHQQVYAPLRADGDKPRAHLTVVRQTPTQHFKNQFPALHWEHELGLAFTKNRMNYTNKFLLIPESGDYFIYSQVTFRGMTSECSEIRQAGRPNKPDSITVVITKVTDSYPEPTQLLMGTKSVCEVGSNWFQPIYLGAMFSLQEGDKLMVNVSDISLVDYTKEDKTFFGAFLL

Source: paper PMC10853178
